Test results reported in PMC8574053.
These are yes or no findings as the source states them, for the method shown. Binding seen in cells or lysates may run through a third protein. Some entries that bind do so weakly or less than the wild type.

Amino acid sequences for entries named in this document (tags omitted).
UniProt P10275: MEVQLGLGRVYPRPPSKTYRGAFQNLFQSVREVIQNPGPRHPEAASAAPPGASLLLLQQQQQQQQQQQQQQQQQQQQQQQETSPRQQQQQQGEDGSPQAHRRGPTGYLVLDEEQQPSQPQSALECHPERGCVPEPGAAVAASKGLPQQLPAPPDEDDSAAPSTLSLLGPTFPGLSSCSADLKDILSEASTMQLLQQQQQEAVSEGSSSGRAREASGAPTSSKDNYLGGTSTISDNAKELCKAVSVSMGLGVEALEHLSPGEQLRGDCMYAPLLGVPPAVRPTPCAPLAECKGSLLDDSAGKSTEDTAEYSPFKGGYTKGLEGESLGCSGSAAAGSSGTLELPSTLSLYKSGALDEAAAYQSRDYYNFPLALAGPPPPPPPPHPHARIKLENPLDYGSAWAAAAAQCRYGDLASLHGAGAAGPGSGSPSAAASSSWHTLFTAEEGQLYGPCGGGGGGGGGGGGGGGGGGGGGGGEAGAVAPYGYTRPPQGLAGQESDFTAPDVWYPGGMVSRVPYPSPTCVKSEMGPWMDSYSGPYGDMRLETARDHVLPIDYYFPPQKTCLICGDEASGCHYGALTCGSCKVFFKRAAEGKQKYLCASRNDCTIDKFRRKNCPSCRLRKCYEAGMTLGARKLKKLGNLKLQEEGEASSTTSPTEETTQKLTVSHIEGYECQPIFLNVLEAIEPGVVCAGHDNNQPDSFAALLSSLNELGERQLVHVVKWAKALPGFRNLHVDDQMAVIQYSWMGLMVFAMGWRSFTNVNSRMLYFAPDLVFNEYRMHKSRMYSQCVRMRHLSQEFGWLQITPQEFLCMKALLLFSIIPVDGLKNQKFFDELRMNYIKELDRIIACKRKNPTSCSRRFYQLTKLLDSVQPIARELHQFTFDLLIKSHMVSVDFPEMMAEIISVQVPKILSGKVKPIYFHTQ

Target: androgen receptor (human (endogenous in LNCaP)) (UniProt P10275)
Assay: co-IP; endogenous proteins of LNCaP cells; cells treated with vehicle or GV1001 (10 uM) for 24 h; reciprocal immunoprecipitation and immunoblotting

binding: binds
Substance: NK3 Homeobox 1 (from UniProt Q99801 1-234)
